PubChem BioAssay AID1224830, NIAID | 2016

Test: 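Regulators of TLR4 signalling towards TNF-alpha in macrophage-like cells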 (primary screen)
System: human THP-1 monocytic leukaemia cells, TNF dual-luciferase reporter clone, PMA-differentiated to macrophage-like cells
Knock-down reagent: siRNA pool against human genes, 50 nM
Time to read-out: LPS for 4 h, given about 3 days after siRNA transfection
Conditions: bacterial LPS (TLR4 ligand), 10 ng/ml
Detection: 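Ratio of firefly to renilla light, scaled to the plate median and expressed as a robust z-score per replicate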
Scale: TNF reporter robust z-score: higher = stronger TNF reporter response to LPS
Hit rule: 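a well is active when its z-score exceeds 2.8 or falls below -1.5; control wells carry no call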
The whole screen tested about 18,000 reagents; this is an unselected part. In the full data, about 2,900 (16%) were called active. 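Calls are made per well; low scores hint the gene aids the LPS response, high scores that it dampens it.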 Repeated entries: four replicate wells of each siRNA pool.

DSC2 (desmocollin 2)
- TNF reporter robust z-score: -0.65
- call: inactive

DSC2 (desmocollin 2)
- TNF reporter robust z-score: 127
- call: active

DSC2 (desmocollin 2)
- TNF reporter robust z-score: -0.33
- call: inactive

DSC2 (desmocollin 2)
- TNF reporter robust z-score: 1.63
- call: inactive

DMRT1 (doublesex and mab-3 related transcription factor 1)
- TNF reporter robust z-score: -0.8
- call: inactive

DMRT1 (doublesex and mab-3 related transcription factor 1)
- TNF reporter robust z-score: -0.07
- call: inactive

DMRT1 (doublesex and mab-3 related transcription factor 1)
- TNF reporter robust z-score: -0.24
- call: inactive

DMRT1 (doublesex and mab-3 related transcription factor 1)
- TNF reporter robust z-score: 0.51
- call: inactive

HAUS4 (HAUS augmin like complex subunit 4)
- TNF reporter robust z-score: 0.25
- call: inactive

HAUS4 (HAUS augmin like complex subunit 4)
- TNF reporter robust z-score: 1.77
- call: inactive

HAUS4 (HAUS augmin like complex subunit 4)
- TNF reporter robust z-score: 0.41
- call: inactive

HAUS4 (HAUS augmin like complex subunit 4)
- TNF reporter robust z-score: 0.56
- call: inactive

LIN28A (lin-28 RNA binding posttranscriptional regulator A)
- TNF reporter robust z-score: -0.29
- call: inactive

LIN28A (lin-28 RNA binding posttranscriptional regulator A)
- TNF reporter robust z-score: -0.17
- call: inactive

LIN28A (lin-28 RNA binding posttranscriptional regulator A)
- TNF reporter robust z-score: -0.19
- call: inactive

LIN28A (lin-28 RNA binding posttranscriptional regulator A)
- TNF reporter robust z-score: 0.09
- call: inactive

The list goes on; the last 3 above are carried over.
LIN28A (lin-28 RNA binding posttranscriptional regulator A)
- TNF reporter robust z-score: -0.17
- call: inactive

LIN28A (lin-28 RNA binding posttranscriptional regulator A)
- TNF reporter robust z-score: -0.19
- call: inactive

LIN28A (lin-28 RNA binding posttranscriptional regulator A)
- TNF reporter robust z-score: 0.09
- call: inactive

METTL25 (methyltransferase like 25)
- TNF reporter robust z-score: -1.12
- call: inactive

METTL25 (methyltransferase like 25)
- TNF reporter robust z-score: -0.95
- call: inactive

METTL25 (methyltransferase like 25)
- TNF reporter robust z-score: -1.15
- call: inactive

METTL25 (methyltransferase like 25)
- TNF reporter robust z-score: -0.83
- call: inactive

IRS2 (insulin receptor substrate 2)
- TNF reporter robust z-score: 1.4
- call: inactive

IRS2 (insulin receptor substrate 2)
- TNF reporter robust z-score: 1.25
- call: inactive

IRS2 (insulin receptor substrate 2)
- TNF reporter robust z-score: 0.02
- call: inactive

IRS2 (insulin receptor substrate 2)
- TNF reporter robust z-score: 0.12
- call: inactive

MTHFD1
- TNF reporter robust z-score: 0.14
- call: inactive

MTHFD1
- TNF reporter robust z-score: 0.97
- call: inactive

MTHFD1
- TNF reporter robust z-score: 1.61
- call: inactive

MTHFD1
- TNF reporter robust z-score: 2.85
- call: active

LRRC41 (leucine rich repeat containing 41)
- TNF reporter robust z-score: 0.55
- call: inactive

LRRC41 (leucine rich repeat containing 41)
- TNF reporter robust z-score: 0.7
- call: inactive

LRRC41 (leucine rich repeat containing 41)
- TNF reporter robust z-score: 0.51
- call: inactive

LRRC41 (leucine rich repeat containing 41)
- TNF reporter robust z-score: 0.33
- call: inactive

ESPL1 (extra spindle pole bodies like 1, separase)
- TNF reporter robust z-score: 0.35
- call: inactive

ESPL1 (extra spindle pole bodies like 1, separase)
- TNF reporter robust z-score: 0.83
- call: inactive

ESPL1 (extra spindle pole bodies like 1, separase)
- TNF reporter robust z-score: 0.29
- call: inactive

ESPL1 (extra spindle pole bodies like 1, separase)
- TNF reporter robust z-score: 1.19
- call: inactive

KRTAP23-1 (keratin associated protein 23-1)
- TNF reporter robust z-score: -0.18
- call: inactive

KRTAP23-1 (keratin associated protein 23-1)
- TNF reporter robust z-score: -0.49
- call: inactive

KRTAP23-1 (keratin associated protein 23-1)
- TNF reporter robust z-score: -1.53
- call: active

KRTAP23-1 (keratin associated protein 23-1)
- TNF reporter robust z-score: 1.24
- call: inactive

SEZ6 (seizure related 6 homolog)
- TNF reporter robust z-score: 0.49
- call: inactive

SEZ6 (seizure related 6 homolog)
- TNF reporter robust z-score: 0.69
- call: inactive

SEZ6 (seizure related 6 homolog)
- TNF reporter robust z-score: 0.56
- call: inactive

SEZ6 (seizure related 6 homolog)
- TNF reporter robust z-score: 1.14
- call: inactive

OR8B4 (olfactory receptor family 8 subfamily B member 4)
- TNF reporter robust z-score: -0.89
- call: inactive

OR8B4 (olfactory receptor family 8 subfamily B member 4)
- TNF reporter robust z-score: -0.55
- call: inactive

OR8B4 (olfactory receptor family 8 subfamily B member 4)
- TNF reporter robust z-score: -0.68
- call: inactive

OR8B4 (olfactory receptor family 8 subfamily B member 4)
- TNF reporter robust z-score: 0.56
- call: inactive
